Assay results

Data taken from PubChem BioAssay AID1053133, deposited by Broad Institute (2014).

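Plate-reader measure of the Venus reporter marking one vaccinia stage in infected cells (the cell line is not named here); read time unknown.
The test concentration is not given here.
Percent change in Venus reporter signal; lower (more negative) values mean stronger inhibition of that viral stage.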

Values are in %.
The controls that fix the scale are not given here.
Common to all entries: measured here: Venus reporter, other viral stage.
Part of the compounds only, not a random draw; the main read-out is not listed here.

Cc1ccc(-c2ccc3c(c2)O[C@@H](CN(C)C(=O)Nc2ccc(F)cc2)[C@H](C)CN([C@H](C)CO)S3(=O)=O)cc1 read activity change (Venus) -53.52%.
Cc1ccccc1-c1ccc([C@H]2[C@H]3CN(C(=O)Cc4ccccn4)CCCCN3[C@H]2CO)cc1 read activity change (Venus) -29.81%.
Cc1ccc(S(=O)(=O)N[C@H]2C=C[C@@H](CC(=O)NCc3ccc(Cl)c(Cl)c3)O[C@H]2CO)cc1 read activity change (Venus) -28.16%.
COc1ccc(S(=O)(=O)N(C)C[C@H]2OCCCC[C@@H](C)Oc3ccc(NS(=O)(=O)c4ccc(F)cc4)cc3C(=O)N([C@@H](C)CO)C[C@H]2C)cc1 read activity change (Venus) -31.03%.
COc1ccc(CN(C)C[C@@H]2Oc3ccc(NC(=O)Nc4ccc(OC)cc4)cc3CC(=O)N([C@@H](C)CO)C[C@H]2C)cc1 read activity change (Venus) -23.85%.
COc1ccc(NC(=O)N(C)C[C@H]2Oc3cc(-c4ccc(C)cc4)ccc3S(=O)(=O)N([C@@H](C)CO)C[C@@H]2C)cc1 read activity change (Venus) -54.07%.
Cc1cccc(-c2ccc([C@@H]3[C@@H](CO)N4C(=O)CN(S(=O)(=O)c5cccc(F)c5)C[C@@H]34)cc2)c1 read activity change (Venus) -57.24%.
C[C@@H]1CN([C@@H](C)CO)C(=O)c2cc(NC(=O)c3ccccc3)ccc2O[C@@H](C)CCCCO[C@H]1CN(C)C(=O)c1ccccc1 read activity change (Venus) -30.21%.
CC(=O)N(C)C[C@H]1Oc2cc(C#CCC3CCCC3)ccc2S(=O)(=O)N([C@H](C)CO)C[C@H]1C read activity change (Venus) -33.49%.
COc1ccc(C#Cc2ccc3c(c2)O[C@@H](CN(C)C(=O)c2ccccn2)[C@@H](C)CN([C@@H](C)CO)S3(=O)=O)cc1 read activity change (Venus) -53.79%.
COc1cccc(-c2ccc3c(c2)O[C@H](CN(C)C(=O)C2CCCCC2)[C@@H](C)CN([C@@H](C)CO)S3(=O)=O)c1 read activity change (Venus) -79.01%.
O=C(Nc1cccc(F)c1)N1CC(=O)N2[C@@H](CO)[C@@H](c3ccc(C#CCC4CCCC4)cc3)[C@@H]2C1 read activity change (Venus) -27.66%.
C/C=C/c1ccc2c(c1)O[C@@H](CN(C)S(=O)(=O)c1ccc(F)cc1)[C@@H](C)CN([C@@H](C)CO)S2(=O)=O read activity change (Venus) -35.38%.
O=C(C[C@@H]1CC[C@@H]2[C@H](COC[C@H](O)CN2Cc2ccc3c(c2)OCO3)O1)Nc1ccc(-c2ccccc2)cc1 read activity change (Venus) -43.32%.
C[C@H]1CCCCO[C@H](CN(C)S(=O)(=O)c2ccccc2)[C@@H](C)CN([C@@H](C)CO)C(=O)c2cc(NC(=O)C3CCCCC3)ccc2O1 read activity change (Venus) -23.11%.
C[C@@H](NC(=O)C[C@H]1CC[C@H]2[C@@H](COC[C@@H](O)CN2C(=O)Nc2cc(Cl)cc(Cl)c2)O1)c1ccccc1 read activity change (Venus) -37%.
C[C@H](CO)N1C[C@H](C)[C@H](CN(C)Cc2ccc(C(F)(F)F)cc2)Oc2c(NS(=O)(=O)c3ccccc3)cccc2C1=O read activity change (Venus) -51.4%.
COc1ccccc1NC(=O)N1CCCCN2[C@H](CO)[C@@H](c3ccc(-c4cccc(C#N)c4)cc3)[C@H]2C1 read activity change (Venus) -35.82%.

2 of the entries, repeated:

compound,activity change (Venus) (%)
O=C(C[C@@H]1CC[C@@H]2[C@H](COC[C@H](O)CN2Cc2ccc3c(c2)OCO3)O1)Nc1ccc(-c2ccccc2)cc1,-43.32
Cc1ccccc1-c1ccc([C@H]2[C@H]3CN(C(=O)Cc4ccccn4)CCCCN3[C@H]2CO)cc1,-29.81